Some results were stated once for a whole list of compounds, not compound by compound.
Tests used:
[1] = test system: Freund's complete adjuvant induced arthritis; experiment: Freund's complete adjuvant induced arthritis model, treatment of established arthritis; type: in vivo, Male Wistar rats; details: 100 mg/kg/day from 14th day till 22nd day after CFA 1 mg per rat
Experimental: (§1) The anti-inflammatory activity potential of both the isomers of the cetyl myristoleate (4 & 8) was evaluated initially in carrageenan induced rat paw edema model employing the method of Winter et al (Winter C A, Risley E A and Nuss G W, J. Pharmacolo. Exp. Ther. 1963; 141:369-376). The arthritis developed by injecting Freund's Complete Adjuvant in Wistar rats is almost similar to the rheumatoid arthritis of the human beings.
Effect of Hexadecyl cis-9-Tetradecenoate and Hexadecyl cis-10-Tetradecenoate on the Arthritic Rats: The hexadecyl cis-9-tetradecenoate, 4 and hexadecyl cis-10-tetradecenoate, 8 produced synthetically given above in Scheme 1 and 2 were subjected to evaluation for anti-arthritic potential in Freund's complete adjuvant induced arthritis model in rats. Male Wistar rats were divided into 4 groups each containing 6 rats. Arthritis was induced in rats in all the groups by administering Complete Freund's Adjuvant (CFA) at the dose of 1 mg per rat by injecting at sub plantar region of the right hind paw. Paw volumes were measured for both paws on every alternate day till 14 days and till full arthritis was developed.

[2] = test system: carrageenan induced paw edema; experiment: carrageenan induced rat paw edema model (anti-inflammatory potential); type: in vivo; details: 400 mg/kg intraperitoneally, 1 hr before carrageenan (1%, 0.1 ml); paw volume 3 hr after carrageenan
Experimental: as §1
Evaluation Studies of Hexadecyl cis-9-Tetradecenoate and Hexadecyl cis-10-Tetradecenoate for Anti-inflammatory. Potential: Hexadecyl cis-9-tetradecenoate, 4 and hexadecyl cis-10-tetradecenoate, 8 produced synthetically exemplified above in Scheme 1 and Scheme 2 were assessed for the anti-inflammatory potential against carrageenan induced paw edema model. Rats were divided into 4 groups. Hexadecyl cis-9-tetradecenoate, 4. and hexadecyl cis-10-tetradecenoate, 8 were administered intraperitoneally to rats in two different groups at a dose of 400 mg/kg. […] Paw volumes were measured using plethysmometer before injecting carrageenan. Paw volumes were again measured 3 hr after the carrageenan administration. The anti-inflammatory potential of hexadecyl cis-9-tetradecenoate, 4 and hexadecyl cis-10-tetradecenoate, 8 were assessed by measuring the inhibition of the paw volumes with reference to mean paw volume in control group.

| Structure (SMILES) | reduction of paw volumes and symptoms associated with arthritis (percent inhibition of arthritis vs control group) [1] | reduction of inflammation and edema (inhibition of paw volume) compared to control group [2] |
| --- | --- | --- |
| CCCC/C=C\CCCCCCCC(=O)OCCCCCCCCCCCCCCCC [compound 4, hexadecyl cis-9-tetradecenoate] | 10 to 15% | up to 36% |
| CCC/C=C\CCCCCCCCC(=O)OCCCCCCCCCCCCCCCC [compound 8, hexadecyl cis-10-tetradecenoate] | 10 to 15% | up to 36% |

Reference: US8816109B2, “Process for preparation of hexadecyl cis-9-tetradecenoate and hexadecyl cis-10-tetradecenoate” (Council of Scientific & Industrial Research, priority 2009, dated 2014)
